These are yes or no findings as the source states them, for the method shown. In cells and extracts the contact can be indirect. Some results given as binding are weak or reduced against the parent protein; the word gives no strength.
Molecular target: FLAG-tagged wild-type hnRNP D40 (full-length) (UniProt Q14103)
Experiment: co-IP; lysates of transfected HeLa cells (25 mM Tris HCl pH 7.4, 150 mM NaCl, 1% NP-40, 1 mM EDTA, 1 mM DTT, RNase inhibitor, 5% glycerol); anti-flag antibody (M2) or IgG on Dynabeads protein G, 4°C overnight; six washes; western blot of endogenous partners

Sequences of proteins named here, by UniProt entry; tags and fusion partners are left off. A change or cut given only in a name is not applied to a line headed by its entry. A line that says so, or that is headed by a name, gives the form on record, which may keep a tag or linker.
FLAG-tagged wild-type hnRNP D40 (full-length) (Q14103, form named): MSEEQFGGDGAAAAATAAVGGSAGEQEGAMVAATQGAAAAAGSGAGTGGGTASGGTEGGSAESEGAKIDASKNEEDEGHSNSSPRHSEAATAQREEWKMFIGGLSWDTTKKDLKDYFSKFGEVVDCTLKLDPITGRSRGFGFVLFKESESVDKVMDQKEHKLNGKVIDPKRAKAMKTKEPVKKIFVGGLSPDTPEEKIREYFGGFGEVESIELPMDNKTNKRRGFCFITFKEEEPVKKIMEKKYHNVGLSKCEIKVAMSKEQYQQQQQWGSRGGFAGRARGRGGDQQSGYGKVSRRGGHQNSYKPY
UniProt P08621: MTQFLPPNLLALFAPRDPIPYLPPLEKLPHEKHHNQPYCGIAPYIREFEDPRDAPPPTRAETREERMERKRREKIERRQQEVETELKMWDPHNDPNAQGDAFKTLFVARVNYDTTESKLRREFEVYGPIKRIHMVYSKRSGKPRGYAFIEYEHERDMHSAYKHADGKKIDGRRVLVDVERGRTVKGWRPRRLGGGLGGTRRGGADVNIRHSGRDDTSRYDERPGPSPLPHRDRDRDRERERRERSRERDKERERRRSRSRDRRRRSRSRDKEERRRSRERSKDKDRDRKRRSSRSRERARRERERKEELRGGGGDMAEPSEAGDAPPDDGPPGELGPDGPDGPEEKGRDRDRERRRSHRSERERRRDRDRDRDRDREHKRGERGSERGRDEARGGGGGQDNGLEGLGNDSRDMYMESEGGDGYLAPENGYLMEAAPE
UniProt P11940: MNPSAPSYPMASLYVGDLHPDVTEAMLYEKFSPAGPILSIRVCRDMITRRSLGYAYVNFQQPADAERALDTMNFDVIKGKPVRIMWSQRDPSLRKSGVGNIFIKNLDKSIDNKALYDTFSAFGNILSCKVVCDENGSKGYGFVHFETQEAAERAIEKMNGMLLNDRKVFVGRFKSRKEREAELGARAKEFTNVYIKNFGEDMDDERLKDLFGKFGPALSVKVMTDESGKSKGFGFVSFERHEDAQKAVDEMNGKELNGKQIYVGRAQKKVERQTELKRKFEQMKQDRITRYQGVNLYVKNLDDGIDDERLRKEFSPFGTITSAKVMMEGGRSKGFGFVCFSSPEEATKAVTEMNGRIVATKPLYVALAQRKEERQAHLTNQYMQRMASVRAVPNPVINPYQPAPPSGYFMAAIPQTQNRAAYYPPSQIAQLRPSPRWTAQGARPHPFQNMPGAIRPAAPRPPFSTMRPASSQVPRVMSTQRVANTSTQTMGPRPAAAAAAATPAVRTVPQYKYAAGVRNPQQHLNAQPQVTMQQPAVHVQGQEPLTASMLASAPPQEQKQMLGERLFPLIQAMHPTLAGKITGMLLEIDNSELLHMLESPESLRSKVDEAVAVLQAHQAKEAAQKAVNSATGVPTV

For “U1 snRNP component U1-70K (from UniProt P08621 1-437)”, the binding was “binds”.

In the case of “cytosolic poly(A)-binding protein-1 (PABP-C1) (from UniProt P11940 1-636)”, the binding is reported as “binds”.

B1: U2 auxiliary factor U2AF35 (protein, UniProt Q01081 1-240)
chain: MAEYLASIFGTEKDKVNCSFYFKIGACRHGDRCSRLHNKPTFSQTIALLNIYRNPQNSSQSADGLRCAVSDVEMQEHYDEFFEEVFTEMEEKYGEVEEMNVCDNLGDHLVGNVYVKFRREEDAEKAVIDLNNRWFNGQPIHAELSPVTDFREACCRQYEMGECTRGGFCNFMHLKPISRELRRELYGRRRKKHRSRSRSRERRSRSRDRGRGGGGGGGGGGGGRERDRRRSRDRERSGRF
In the case of B1, the binding is reported as “binds”.
